Assay results as given in PubChem BioAssay AID1347426 (Functional Genomics Laboratory (NCATS/FGL), 2020).
The whole screen tested about 31,000 sequences, of which about 1,400 (4.5%) were called active.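 How the source made its calls: active means median seed-adjusted z-score above 1 or below -1; inactive means the rest.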 The list shows a part of the results.

Assay: Novel Modifiers of Survival Motor Neuron (SMN) Protein: Gene Identification via Genome-wide siRNA Screen;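 further: luminescence tracks full-length SMN protein made from the SMN2 reporter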
Details: HEK293T SMN2-luciferase reporter, siRNA knockdown, 72 h; actives lie on both sides
Procedure, shortened: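 HEK293T cells stably carrying an SMN2 promoter/splicing cassette–luciferase reporter were reverse-transfected with 1 pmol siRNA per well (druggable-genome library, 3 siRNAs per gene) and grown 72 h at 37 °C. Luminescence, normalized to negative-control siRNA and log10-transformed, was scored as MAD.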

Sequence | median seed-adjusted z-score
CCCUGACGGUCAUCGAGAATT against 9-Mar | inactive: 0.261
GGUGUGCACUGUGAGAUCATT against NOTCH1 | inactive: 0.116
CAGGCACAGUUGCCGAUUATT against CD247 | inactive: -0.522
CGCAAUUAAUUAGUAGUGATT against RBAK | inactive: 0
CACCCGCAAGUGGACUUUATT against ACTL7B | inactive: 0.572
CUUUCGAGAUUUUAUUGAATT against JRKL | inactive: -0.227
GAUGGAAGAGGUAAAAUGATT against GADL1 | inactive: 0
CAACAAUGCCGGAAUCGUATT against SDR16C5 | inactive: -0.0558
CCUCUUUAUUUACCACCUUTT against CUGBP2 | inactive: -0.532
GAGAGACUCAAGAACGUGATT against ARCN1 | active: -1.25
CACAAGUUCUUGAUAAGUUTT against ASAP1 | inactive: 0.0592
AGGUCCCAGUGAAUGAAAATT against MTHFS | inactive: 0.166
CGGUUACAAGAGGCCUUAATT against RYR1 | inactive: -0.474
GGAGAUCCAUGGUAGCUUATT against SIRT5 | inactive: 0.39
GGAAGAAUUUUGAGAGUCATT against HEMK1 | inactive: 0.101
GGAUUUUACAGGAUAUCUUTT against SPPL2A | inactive: -0.358
GAAAGUAUACAGAACAGAUTT against NDUFA5 | inactive: -0.0429
CGAUCGCUACUGCUCCAUUTT against ADAMTS14 | inactive: 0.209
CGAUUCGUCUGAGCGAAUATT against SYNPO2 | inactive: 0
GAUUAUCAAGUGCUAGGAATT against ZW10 | inactive: 0.199
AGUUUGACAUGGUGAGUGATT against PSMC3IP | inactive: -0.0482
GAAAAUACCUGACCCUAGATT against TPP1 | inactive: -0.0334

Sequence | median seed-adjusted z-score
CAGCCGAAAUGUGACAACATT against SMOC2 | inactive: -0.72
GUGAGGAACUUUAUCGAAATT against PNPLA8 | inactive: 0.0576
GUUACCCACUGGACCUAGATT against FTSJ1 | inactive: 0.0774
CCAGGGUGAGUUAAAGAGATT against MYL4 | inactive: -0.388
CGAUGAAAUGAGUCUGAUUTT against P4HTM | inactive: -0.257
GGACGAAUAGAAGUAAAUATT against TFB2M | inactive: 0.206
GCAGAGAAACCAUUCCGAUTT against ZNF224 | inactive: 0.0073
GCGUAAACCUUGAAAAUGATT against ZSCAN21 | inactive: 0.687
GGCUGUUUGUGAUGGAUAATT against GALNT2 | inactive: 0.0798
UGAUGGGACUUUUUGUGUUTT against PPP1R14B | inactive: 0.205
CCCUGGACAUGUUCGCUGATT against CD2BP2 | inactive: -0.455
GUACAGCGAGUAAUAGAUATT against PPP3R1 | inactive: 0.18
GGAGCACAGAUUGUUCAAATT against NFYA | inactive: 0.437
GGAUGAUGCUGACCGUGAATT against KIF13B | inactive: 0.456
GGACAGUAAUCUCAUUGUUTT against MMP10 | inactive: 0.902
CAGACGACCUGGAAACAGUTT against USP31 | inactive: -0.755
GGAUAGGAGUCAUCAGCCUTT against SSTR3 | inactive: 0
GCAGACAGGUAAGUAAAGATT against HES7 | inactive: -0.286
GGUGGACGGUGUUCACUUUTT against ZBTB17 | inactive: 0.0544
GCUCAUCACAGCUCACGUATT against IRF4 | inactive: -0.332
CAGUCUUUGUGGGACAAGUTT against ARFRP1 | inactive: -0.329
GCUUCACCAGGGACGUGAATT against CD1D | inactive: -0.579

Sequence | median seed-adjusted z-score
CCAACAUGGUUCUAACCUUTT against NDUFS4 | inactive: 0.336
CAGCCUGGAGUAUACAGUATT against ICMT | inactive: -0.0602
CGUUCAGUCCGUCACCCAATT against GATAD2A | inactive: -0.715
GCAAAGGUUUGAGUUCCAATT against ZNF621 | inactive: 0
GGAAUUAUUAGACUACAAATT against PSAT1 | inactive: -0.706
GGCUCUCGUAUGUAACGUATT against USP24 | inactive: 0.101
CAAAAUUGCGAGUCCAUGATT against PLCZ1 | inactive: 0
GGACCUUUGUAAAACGAAATT against MMEL1 | inactive: 0.325
CCUUAAGGCCGGAUGUUUATT against ATP4B | inactive: -0.609
GGAUCCUCUUGCUCAUAGATT against TIGD6 | inactive: -0.443
UGGUCAUCGCUAUCUCCUATT against NPBWR1 | inactive: 0.344
AGAUGAUUAUGAGAACCAUTT against CAMKV | inactive: -0.193
CACUCGGGUUUUGAAUAUATT against CTH | inactive: 0.629
GGACAGUAGGGAUACUGGATT against ENTPD7 | inactive: 0.368
CAUCCUAGCCUGUGCGAAATT against RFC5 | inactive: -0.644
CCUCGACUAUUUUAAGACATT against UBA1 | active: 1.34
CGUAGAUUCCCAUCAUACATT against BSG | inactive: 0.211
GGGCAUGAUCUGCUACAAUTT against GSTM1 | inactive: -0.55
GAUGAGGAUUUAUGACCAATT against FOXL1 | inactive: -0.448
GCACAUGAAGAAUGACGAUTT against CHRNB4 | inactive: -0.317
CAACCCUGAUAAAAGAGAUTT against VEGFB | inactive: 0
CACUGGAUGCGAUAAGACATT against AEBP2 | inactive: -0.212

For convenience, some entries already given:
Sequence | median seed-adjusted z-score
GCAGACAGGUAAGUAAAGATT against HES7 | inactive: -0.286
GGUGGACGGUGUUCACUUUTT against ZBTB17 | inactive: 0.0544
GCUCAUCACAGCUCACGUATT against IRF4 | inactive: -0.332
CAGUCUUUGUGGGACAAGUTT against ARFRP1 | inactive: -0.329
GCUUCACCAGGGACGUGAATT against CD1D | inactive: -0.579
CCAACAUGGUUCUAACCUUTT against NDUFS4 | inactive: 0.336
CAGCCUGGAGUAUACAGUATT against ICMT | inactive: -0.0602
CGUUCAGUCCGUCACCCAATT against GATAD2A | inactive: -0.715
GCAAAGGUUUGAGUUCCAATT against ZNF621 | inactive: 0
GGAAUUAUUAGACUACAAATT against PSAT1 | inactive: -0.706
GGCUCUCGUAUGUAACGUATT against USP24 | inactive: 0.101
CAAAAUUGCGAGUCCAUGATT against PLCZ1 | inactive: 0
GGACCUUUGUAAAACGAAATT against MMEL1 | inactive: 0.325
CCUUAAGGCCGGAUGUUUATT against ATP4B | inactive: -0.609
GGAUCCUCUUGCUCAUAGATT against TIGD6 | inactive: -0.443
UGGUCAUCGCUAUCUCCUATT against NPBWR1 | inactive: 0.344
AGAUGAUUAUGAGAACCAUTT against CAMKV | inactive: -0.193
CACUCGGGUUUUGAAUAUATT against CTH | inactive: 0.629
GGACAGUAGGGAUACUGGATT against ENTPD7 | inactive: 0.368
CAUCCUAGCCUGUGCGAAATT against RFC5 | inactive: -0.644
CCUCGACUAUUUUAAGACATT against UBA1 | active: 1.34
CGUAGAUUCCCAUCAUACATT against BSG | inactive: 0.211
GGGCAUGAUCUGCUACAAUTT against GSTM1 | inactive: -0.55
GAUGAGGAUUUAUGACCAATT against FOXL1 | inactive: -0.448
GCACAUGAAGAAUGACGAUTT against CHRNB4 | inactive: -0.317

Remaining list, next part.

Sequence | median seed-adjusted z-score
ACAGUAACGGGAUCGACUATT against RAB40C | inactive: -0.161
GAGUACUCGGUGUUCCUGATT against S100A5 | inactive: 0.418
AAAAUGCAGUCGACGAAAATT against GTPBP1 | inactive: -0.18
GAUGUAUUCUCAAUCGUAUTT against USP9X | inactive: -0.443
GGAGGCUAAUGGUUGCUUUTT against ARPC1B | inactive: 0
CAAACAGUCAAAAACCCAATT against ADH6 | inactive: -0.132
GGGAAGUUGCAGUCAAGAATT against ZFP37 | inactive: -0.305
CUGGUUCGCCGAGAAAUUUTT against TRIAP1 | inactive: 0.253
GGAUGAAACUGACCGAUUUTT against PRKCB1 | inactive: 0.0463
GUGGAGGAAUGGUUCAAUATT against KRT32 | inactive: -0.000598
ACCAUACCCUGGACCAUGATT against HK3 | inactive: 0.0759
GCCCAACUGUACUGUCAUATT against SMYD1 | inactive: -0.0827
AGAGUGUGCCGGUUACCCATT against CD8B | inactive: 0.174
GGUCAUAUUCCACAAGGAATT against SLC26A7 | inactive: 0.561
GGAUCAUUUUGGGAGCCUUTT against HTR1B | inactive: -0.221
CCGCAUACAUUUUCGAAGATT against PFKP | inactive: -0.352
CUGCCGCAAUGACAACAAATT against TRIM42 | inactive: -0.153
CUAGGAGUCAAAGAAAAUATT against RNPS1 | inactive: 0
GGCCUUGGCAAUGACGAUCTT against FXYD7 | inactive: -0.0312
GCUGGUAUCUAUUUAGGUATT against SLCO6A1 | inactive: 0.0239
GACUGAGGCUCAGUACGUATT against PTPRH | inactive: 0.175
CGCAAAUCAUCAACUCCAATT against ACTN4 | inactive: 0

Sequence | median seed-adjusted z-score
GGACUACUUCUGAACUCUATT against TFDP2 | inactive: 0.85
GGAUAAAGUGGGAUGAACATT against PRPF3 | inactive: -0.289
AGCCAAACAUCAUCAUGGATT against PMS2L3 | inactive: 0.175
GCUACUUCAUCGUUAGAUUTT against ABCB7 | inactive: -0.0991
CGCCUUGAAUGGGAGCAAATT against C2 | inactive: -0.0549
GUUUAGAUCUCAAACAAGATT against SPINLW1 | inactive: 0.00582
GCGCAGUAUAUCUACAAGATT against MBOAT7 | inactive: 0.314
GCAAAUGUCACGUUACUCATT against TFAP2B | inactive: 0
GAGUAGUUUAGAUAAGUUATT against SPAG9 | inactive: 0.0795
CGCAUGUUCCGGGACAAAATT against BCR | inactive: 0.143
GUAUCUCACUGGAGAAGGATT against LAMC3 | inactive: 0.394
GGAGGAACAGUUUCGAUCATT against REV1 | inactive: -0.294
GCUAUACGGUUGACAACGATT against ISLR | inactive: 0.00807
GACUGUGAUCGAGCCCUUATT against BIN3 | inactive: 0.16
CGUUCUCUGUGGGUUCAUUTT against PAOX | inactive: 0
GAUCUACCGAAUACAAGAATT against GPR171 | inactive: -0.449
GCAGAAUAGAGGUCAAUGUTT against KPNA2 | inactive: 0.157
CAACGAUUAGAACAAGGAATT against PTPN21 | inactive: 0
CUAUCAAUCCCAGCACUAATT against CDKL3 | inactive: 0.243
GCUGAGUGUUCGUAACAUUTT against TUBD1 | inactive: -0.00491
